The assay can be described thus: qHTS Assay for Modulators of Lamin A Splicing. To be noted: HeLa LMNA splicing GFP/RFP minigene ratio, 48 h. In outline: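 S3 HeLa stable clones carrying a lamin A-EGFP splicing minigene plus DsRed2 were seeded at 600 cells/well in Opti-MEM with 2% FBS, pin-dosed and incubated 48 h at 37°C. Acumen cytometry (488 nm) gave the GFP/RFP total-intensity ratio.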
The mark [1] stands for this setting: measured here: RFP viability control channel.
[2] abbreviates: measured here: GFP splicing reporter channel.

SMILES strings stand for the structures. The list shows a part of the results. Further columns of the screen follow, without active or inactive calls. Most of these compounds were active or inconclusive in the main read-out, so they are no random draw. The note in brackets gives the kind of curve behind each potency; many fits are weak.

A word on the AC50: it is the midpoint of the concentration-response curve, whichever way the signal moves. With `O=C(O)CC(SCC(=O)Nc1ccc(S(=O)(=O)N2CCCC2)cc1)C(=O)O` (stereo not given), under setting [1], the AC50 was 0.112 µM [falling, full curve]. Turning to `COc1ccc(-c2csc(NC(=O)c3ccc(S(=O)(=O)N4CCc5ccccc5C4)cc3)n2)c(OC)c1`, the AC50 under setting [1] was 2.82 µM [rising, full curve]. Regarding `O=C(CCn1c(=O)[nH]c2ccccc2c1=O)N1CCN(c2cccc(C(F)(F)F)c2)CC1`, under setting [2], the AC50 was 20 µM [rising, single point].

Regarding `CCn1cc(C(=O)N2CCc3ccccc32)c(=O)c2cc(S(=O)(=O)N3CC(C)CC(C)C3)ccc21` (stereo not given), the AC50 under setting [2] is 20 µM [rising, single point] and the AC50 under setting [1] is 20 µM [rising, single point]. `O=C(c1ccc(Br)cc1)C1CCc2occc2C1=O` (stereo not given): the AC50 under setting [2] was 25.1 µM [rising, single point]. Turning to `O=C(c1sc2cc(F)ccc2c1Cl)N1CCN(c2cccc(Cl)c2)CC1`, under setting [1], the AC50 is 35.5 µM [rising, partial curve, poor fit]. Take `CCCCc1cc2c(cn1)=C(OC(=O)C1CCCC1)C(C)(OC(=O)CC)C(=O)C=2` (stereo not given): the AC50 runs as follows: under setting [2], 0.000794 µM [rising, full curve, poor fit]; under setting [1], 1.26 µM [rising, partial curve, poor fit]. Take `CCOC(=O)c1c(NC(=O)C2C3C=CC(C3)C2(C)C(=O)O)sc2c1CCCC2` (stereo not given): the AC50 under setting [1] is 20 µM [rising, partial curve]. In the case of `COCCNc1ncnc2c1cnn2Cc1ccc(Cl)cc1`, under setting [1], the AC50 was 14.1 µM [rising, single point]. As to `O=C(c1ccc([N+](=O)[O-])s1)N1CCN(c2ccccc2)CC1`, the AC50 under setting [1] is 14.1 µM [rising, single point]. `Cc1nn(-c2ccccc2)c(C)c1/C=N/NC(=O)CSc1nc2ccccc2c(=O)n1-c1ccc(Br)cc1`: the AC50 by setting is: under setting [2], 7.94 µM [falling, partial curve]; under setting [1], 7.94 µM [falling, partial curve].

Regarding `COc1ccc(NC(=O)Cn2c(=O)n(-c3ccc(CC(=O)NCc4ccco4)cc3)c(=O)c3ccccc32)cc1`, the AC50 runs as follows: under setting [2], 22.4 µM [falling, partial curve, poor fit]; under setting [1], 17.8 µM [falling, partial curve].

Regarding `Cc1ccc(C(=O)CSc2nnc(COc3cccc(C)c3)o2)cc1`, the concentration at half-maximal activity (AC50) under setting [1] was 11.2 µM [rising, partial curve]. `O=c1oc2ccccc2cc1-c1csc(Cc2nc(-c3ccc(Cl)cc3)cs2)n1`: the concentration at half-maximal activity (AC50) under setting [1] was 5.62 µM [rising, single point]. As to `COC(=O)c1c(-c2ccc(Cl)cc2)noc1N1CCN(c2cccc(C)c2C)CC1`, under setting [2], the AC50 was 8.91 µM [falling, partial curve, poor fit]. In the case of `CCOc1ccc(-c2n[nH]c(C)c2-c2ccccc2OC)c(O)c1`, under setting [1], the AC50 is 17.8 µM [rising, single point].

`CCCNC(=S)N1CCC(n2cnc3ccccc32)CC1`: the AC50 under setting [2] is 6.31 µM [falling, single point]. As for `Clc1ccc(N=c2ssnc2Cl)cc1`, the AC50 under setting [1] was 12.6 µM [rising, partial curve]. For `Nc1cccc(-c2cc(-c3ccccc3)nc(-c3cccc(N)c3)n2)c1`, the AC50 is 35.5 µM [falling, single point] under setting [2] and 35.5 µM [falling, single point] under setting [1].

Regarding `CCOc1ccc(C2=C(C(=O)CC)Sc3nncn3N2C(=O)CC)cc1`, the AC50 under setting [2] is 0.794 µM [falling, partial curve, poor fit]. On to `Cc1ccc(-c2nnn(CCC(=O)N3CCCCC3C)n2)cc1` (stereo not given), for which the AC50 was 28.2 µM [rising, partial curve] under setting [2] and 25.1 µM [rising, single point] under setting [1]. With `O=c1[nH]c2cccc(Cl)c2n(CCNc2ncc(C(F)(F)F)cc2Cl)c1=O`, under setting [1], the AC50 was 14.1 µM [rising, partial curve, poor fit]. Still for that read-out and setting: with `Cc1nn(CCC(=O)O)c2nc(-c3cccnc3)cc(C(F)(F)F)c12` the figure was 0.0708 µM [rising, full curve, poor fit]. The same measure, in the same setting: to `CC(C)c1ccc(/C=C/C(=O)NCCC2=CCCCC2)cc1` belongs 28.2 µM [rising, single point]. Take `COC(=O)c1cccc(Nc2nc3ccccc3nc2C)c1`: the AC50 is 5.01 µM [rising, partial curve] under setting [2] and 11.2 µM [rising, partial curve] under setting [1].

As for `CC(=O)Nc1ccc(NC(=O)CSc2nnc(-c3ccc(NS(C)(=O)=O)cc3)n2C)cc1C`, the AC50 under setting [1] was 0.00447 µM [rising, full curve, poor fit].

`Cc1cc(C(C)(C)C)ccc1OCCn1ccnc1`: the concentration at half-maximal activity (AC50) under setting [1] was 7.94 µM [rising, partial curve, poor fit]. Still for that read-out and setting: with `O=C(NCc1ccc2c(c1)OCO2)c1ccc(NS(=O)(=O)c2ccc3c(c2)OCCO3)cc1` the figure was 15.8 µM [rising, partial curve]. In the case of `CN(C)CCOC(=O)[C@@H](c1ccccc1)C1(O)CCCC1`, the AC50 under setting [1] was 0.282 µM [falling, partial curve].

In the case of `COc1c(Cl)cc(C(=O)Nc2ccccc2C(=O)O)cc1Cl`, under setting [1], the AC50 is 0.0282 µM [falling, single point]. Regarding `CCOC(=O)C(=O)CC(=O)c1ccc2c(c1)OCCO2`, the AC50 under setting [2] was 0.0447 µM [rising, full curve, poor fit]. `Cc1ccc(C)c(S(=O)(=O)n2nc(C)c(S(=O)(=O)N3CCC(C)CC3)c2C)c1`: the AC50 is 17.8 µM [rising, partial curve, poor fit] under setting [2] and 17.8 µM [rising, partial curve] under setting [1]. Regarding `Cc1cccc(-n2c(SCC(=O)Nc3cccc(S(=O)(=O)NC4=NCCCCC4)c3)nc3ccccc3c2=O)c1C`, the AC50 under setting [1] was 0.562 µM [rising, partial curve, poor fit]. `C=CCn1c(Cc2cccs2)nnc1SCC(=O)c1ccc(F)cc1`: the AC50 under setting [2] was 25.1 µM [rising, single point].

With `CCc1cccc(CC)c1C(O)c1cccnc1` (stereo not given), the AC50 under setting [1] is 0.00447 µM [falling, full curve, poor fit].

Take `COc1ccccc1C(=O)N1CC2(C)CC1CC(C)(C)C2` (stereo not given): the AC50 under setting [1] is 35.5 µM [rising, single point]. On to `COc1ccc(NS(=O)(=O)c2cccc(C(=O)N/N=C(\C)c3ccncc3)c2)cc1`, for which, under setting [1], the AC50 was 35.5 µM [rising, single point].

Turning to `O=C(Nc1ccc2c(c1)CCC2)c1cccs1`, the AC50 is 0.0224 µM [falling, full curve, poor fit] under setting [2] and 0.0398 µM [falling, full curve] under setting [1]. For `CC(C)=NNc1nc2c(c(=O)[nH]c(=O)n2C)n1CCc1ccccc1`, the half-maximal activity concentration (AC50) under setting [2] was 35.5 µM [falling, single point]. Regarding `C/C(=N/Nc1cc(-c2ccccc2)nc(-c2ccccc2)n1)c1ccc(O)cc1`, the AC50 runs as follows: under setting [2], 35.5 µM [falling, single point]; under setting [1], 25.1 µM [rising, single point]. On to `Cc1c(C(=O)OCC2CCCO2)[nH]c2c1C(=O)CC(c1ccc(N(C)C)cc1)C2` (stereo not given), for which the AC50 under setting [1] is 11.2 µM [rising, partial curve]. Take `Cc1cc(C)c(-c2csc(Cc3nc(-c4cc5ccccc5oc4=O)cs3)n2)cc1C`: the AC50 under setting [1] was 14.1 µM [rising, partial curve].

With `COc1cccc(C2=NN(C(=O)c3ccccc3)C(O)(C(F)(F)F)C2)c1` (stereo not given), the AC50 under setting [1] was 31.6 µM [rising, single point]. Consider `Fc1ccc(-c2csc3ncnc(N4CCc5ccccc5C4)c23)cc1`, for which the half-maximal activity concentration (AC50) under setting [1] is 35.5 µM [rising, single point].

Take `Cc1cc(C(=O)c2ccccc2)c(NC(=O)CCl)s1`: under setting [2], the AC50 was 22.4 µM [falling, single point].

Take `COc1cccc(NC(=O)C2CCCN2S(=O)(=O)c2ccc3nc(-c4ccccc4)[nH]c3c2)c1` (stereo not given): the AC50 under setting [1] is 0.00316 µM [falling, full curve, poor fit].

With `CC(C)c1ccc(NC(=O)c2ccc(F)c(S(=O)(=O)N3CCN(c4ccccc4F)CC3)c2)cc1`, the AC50 under setting [2] was 0.0282 µM [falling, full curve, poor fit]. In the case of `COc1cc2c(cc1OC)CN(C(=S)NC(=O)c1ccccc1)CC2`, the half-maximal activity concentration (AC50) under setting [2] is 0.447 µM [falling, full curve] and the concentration at half-maximal activity (AC50) under setting [1] was 0.1 µM [falling, full curve]. On to `COc1ccccc1N1CCN(C(=O)CSc2nnc3n2C(C)(C)Cc2ccccc2-3)CC1`, for which, under setting [1], the AC50 is 2.82 µM [rising, full curve]. For `COc1ccc([N+](=O)[O-])cc1NC(=O)CSCc1ccc(Br)cc1`, under setting [2], the AC50 was 31.6 µM [rising, single point].

Consider `Cc1ccc2nc(NC(=O)c3ccc(OCC4CCCO4)cc3)sc2c1` (stereo not given), for which the AC50 is 11.2 µM [rising, partial curve] under setting [2] and 11.2 µM [rising, partial curve] under setting [1]. Take `COc1cc(/C=C2/C(=O)NN(c3cccc(C)c3)C2=O)cc([N+](=O)[O-])c1O`: the AC50 under setting [1] is 0.0316 µM [falling, full curve, poor fit].

Regarding `CCCN(Cc1ccccc1)C(=S)Nc1ccc(OC(F)F)cc1`, the AC50 under setting [1] was 35.5 µM [rising, single point]. For the compound `COC(=O)c1sccc1S(=O)(=O)N1CCN(c2ccc(C(C)=O)cc2)CC1`, the half-maximal activity concentration (AC50) reads like this: under setting [2], 0.0355 µM [falling, full curve, poor fit]; under setting [1], 1.58 µM [falling, full curve, poor fit]. On to `Cc1cc(F)ccc1NC(=O)c1ccc(NS(=O)(=O)c2cc(C(C)(C)C)ccc2C)cc1`, for which, under setting [1], the AC50 is 31.6 µM [rising, single point]. For the compound `C[C@](N)(Cc1ccc(O)c(O)c1)C(=O)O`, the AC50 under setting [2] is 0.00224 µM [falling, partial curve, poor fit]. With `O=C(Nc1ccc(NC(=S)NC(=O)c2ccccc2F)cc1)c1cccs1`, under setting [2], the AC50 was 22.4 µM [falling, single point].

(Values after PubChem BioAssay AID1487 (National Center for Advancing Translational Sciences (NCATS), 2009).)
